Reference: PubChem BioAssay AID504467 (National Center for Advancing Translational Sciences (NCATS), 2011)
Out of some 330,000 compounds screened, about 7,700 (2.3%) were called active. This list was built around the results that the source calls inconclusive (neither active nor inactive); the mix of calls is not that of the screen. Calls follow the shape of the dose curve; as a rule, active = well fitted inhibition curve with a large enough effect; inconclusive = small, poorly fitted or top-dose-only effect, or effect the other way; inactive = flat fitted curve, though single readings scatter. A potency beside an inconclusive call is a rough fit, not a confirmed value.

assay: qHTS screen for small molecules that inhibit ELG1-dependent DNA repair in human embryonic kidney (HEK293T) cells expressing luciferase-tagged ELG1; settings: HEK293T ELG1-luciferase reporter, luminescence, 16 h, DNA damage induced by 5-fluorouridine; series mostly up to 46.1 µM; also: nearly all actives have a fitted effect of over 55% in size
In short: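 Step one: seed 2,000 cells per well. Step two: pin-transfer compound or DMSO alongside 5-fluorouridine. Step three: incubate 16 hr, 37 °C, 5% CO2. Step four: add ONE-Glo, wait 30 min, read luminescence.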
Potency is read from the fitted curve at half-maximal effect.

Compound	Potency
Cc1noc(NS(=O)(=O)c2ccc(N/C=C\C(=O)c3ccc(F)cc3)cc2)c1C	inconclusive: 16.4 µM [activator, single point]
Cc1ccc(NC(=O)CCn2cccc2)cc1F	inconclusive: 16.4 µM [activator, partial curve, poor fit]
COc1cccc(Nc2nc(-c3sc(N)nc3C)cs2)c1	inconclusive: 6.51 µM [inhibitor, partial curve]
O=C(NC(=S)Nc1ccc(S(=O)(=O)N2CCCCC2)cc1)c1ccccc1	inconclusive: 20.6 µM [inhibitor, single point]
COc1nc2ccccc2cc1-c1noc(-c2cccnc2)n1	inactive
COc1ccc(S(=O)(=O)N2CCCCC2C)cc1 (stereo not given)	inactive
CC(C)(C)C(=O)OC/C(N)=N/OC(=O)c1ccc(Cl)c(Cl)c1	inactive
O=c1ccc(OCCOc2ccccc2)nn1-c1ccccc1	inconclusive: 29.1 µM [inhibitor, single point]
N#C/C(=C\c1ccc(OCc2ccc(Br)cc2)cc1)C(=O)Nc1cccc(C(=O)O)c1	inconclusive: 20.6 µM [activator, partial curve]
COC(=O)c1c(NC(=O)CSc2ncnc3[nH]ncc23)sc2c1CCC2	inconclusive: 29.1 µM [activator, single point]
OC(COc1ccc(CNCCc2ccc(C(F)(F)F)cc2)cc1)CN1CCCCC1 (stereo not given)	inconclusive: 29.1 µM [inhibitor, single point]
CN(C)S(=O)(=O)c1cccc(-c2nn(-c3ccccc3)cc2/C=C(/C#N)C(=O)NCc2ccco2)c1	inconclusive: 2.91 µM [inhibitor, full curve]
O=C(CN1C(=O)/C(=C\c2ccccc2F)SC1=S)Nc1nc2ccccc2s1	inconclusive: 25.9 µM [activator, single point]
C[C@H](NC(N)=O)C(=O)Nc1ccc2c(c1)OCO2	inconclusive: 14.6 µM [inhibitor, partial curve, poor fit]
C=C(C)CNC(=O)CCc1nnc(Cc2cccc(C(F)(F)F)c2)o1	inconclusive: 23.1 µM [activator, partial curve]
COc1ccc(-c2nc3ccccc3n2OC(C)C(=O)O)cc1 (stereo not given)	inconclusive: 25.9 µM [activator, single point]
O=C(Nc1cc(S(=O)(=O)Nc2ccc(Cl)cc2)ccc1O)c1ccc(F)cc1F	inconclusive: 20.6 µM [inhibitor, partial curve]
O=C(N/N=C/c1cccs1)c1ccccn1	inconclusive: 14.6 µM [activator, single point]
CS(=O)(=O)c1cnc2c(-c3ccsc3)cnn2c1N	inconclusive: 18.3 µM [activator, partial curve]
CCCc1ccc(-c2cc(C(=O)N/N=C/c3ccc([N+](=O)[O-])o3)c3ccccc3n2)cc1	inconclusive: 2.31 µM [activator, partial curve]
COc1ccc(OCC(NS(=O)(=O)c2ccc(-n3cnnn3)cc2)C(C)C)cc1 (stereo not given)	inactive
CC(C)(C)[C@H](N)C(=O)N[C@H]1CCC2C3CC=C4C[C@@H](O)CC[C@]4(C)C3CC[C@@]21C (stereo not given in full)	inconclusive: 23.1 µM [inhibitor, single point]
COc1ccc(NC(=O)CSc2nnc(-c3cccs3)n2-c2ccccc2)cc1	inconclusive: 35.5 µM [activator, single point]
O=C(CSc1nnc(-c2ccncc2)s1)Nc1ccccc1	inactive

At a glance, three of the compounds above:
Compound	Potency
CCCc1ccc(-c2cc(C(=O)N/N=C/c3ccc([N+](=O)[O-])o3)c3ccccc3n2)cc1	inconclusive: 2.31 µM [activator, partial curve]
COc1ccc(OCC(NS(=O)(=O)c2ccc(-n3cnnn3)cc2)C(C)C)cc1 (stereo not given)	inactive
CC(C)(C)[C@H](N)C(=O)N[C@H]1CCC2C3CC=C4C[C@@H](O)CC[C@]4(C)C3CC[C@@]21C (stereo not given in full)	inconclusive: 23.1 µM [inhibitor, single point]

Random excerpt: 2 records from the list
Compound	Potency
CC(C)(C)[C@H](N)C(=O)N[C@H]1CCC2C3CC=C4C[C@@H](O)CC[C@]4(C)C3CC[C@@]21C (stereo not given in full)	inconclusive: 23.1 µM [inhibitor, single point]
COc1nc2ccccc2cc1-c1noc(-c2cccnc2)n1	inactive

Remaining list, next part

Compound	Potency
Cc1ccc(N2C(=O)/C(=C/c3ccco3)SC2=S)cc1	inconclusive: 20.6 µM [activator, partial curve]
CN1CCN(C(=S)c2ccc(-c3cccc(Cl)c3Cl)o2)CC1	inconclusive: 5.8 µM [activator, partial curve]
Oc1c(C=NCc2ccccc2)sc2ccccc12	inconclusive: 18.3 µM [activator, partial curve]
CN(C)CCCNC(=S)Nc1ccc(-c2ccccc2)cc1	inactive
COc1ccc(-c2csc(N)n2)cc1	inconclusive: 20.6 µM [activator, partial curve]
O=[N+]([O-])c1ccc(Nc2nc(N/N=C\c3ccc4c(c3)OCO4)nc(N3CCCCC3)n2)cc1	inconclusive: 10 µM [inhibitor, partial curve, poor fit]
O=C(Nc1ccccc1OC(F)F)c1ccc(S(=O)(=O)N2CCOCC2)cc1	inactive
COc1ccc(/C(C)=N/Nc2ccc(F)cc2F)c(O)c1	inconclusive: 18.3 µM [activator, partial curve]
Fc1ccc(-c2ccc(CNCc3ccccn3)o2)cc1	inconclusive: 20.6 µM [activator, partial curve]
O=C(Cc1ccccc1)NC(Nc1cccc2ccccc12)C(Cl)(Cl)Cl (stereo not given)	inactive
CCOc1ccc(-n2nc3ccc(NC(=O)c4ccc5c(c4)OCCO5)cc3n2)cc1	inconclusive: 3.66 µM [inhibitor, single point]
Cc1ccc(NC(=O)c2ccc(OC(F)F)cc2)cc1S(=O)(=O)N(C)C	inconclusive: 23.1 µM [inhibitor, single point]
CN=C1SC(C(=O)Nc2ccccc2Cl)CC(=O)N1c1ccc(OC(F)(F)Cl)cc1 (stereo not given)	inactive
CCC(C)c1ccc(NC(=O)c2cccnc2)cc1 (stereo not given)	inconclusive: 7.31 µM [activator, partial curve]
COc1ccc2c(-c3ccc(OCCN4CCOCC4)cc3)c(-c3ccccc3OC)sc2c1	inactive
Cc1ccc(C(=O)CSc2nnc3n2CCCCC3)s1	inconclusive: 18.3 µM [activator, partial curve]
COc1cccc(/C=C2\SC(=O)N(CCC(=O)NNC(=O)c3ccccc3Cl)C2=O)c1	inconclusive: 16.4 µM [activator, single point]
c1ccc(-c2noc(-c3cccc4ccccc34)n2)cc1	inconclusive: 7.31 µM [activator, partial curve]
CC(=O)Oc1ccc(-c2csc(Nc3cccc(C)n3)n2)cc1	inconclusive: 0.708 µM [activator, full curve, poor fit]
OC(COc1ccc2cc(Br)ccc2c1)CN1CCCC1 (stereo not given)	inconclusive: 20.6 µM [activator, partial curve]
CCOc1ccccc1NC(=O)C1=C(C)NC(=S)NC1c1cccs1 (stereo not given)	inconclusive: 18.4 µM [inhibitor, single point]
CCOc1ccc(C(=O)Nc2ccc3[nH]ncc3c2)cc1	inconclusive: 0.92 µM [activator, full curve]
CC(C)CCNC(=O)c1onc(CSc2ccc(F)c(F)c2)c1C(=O)NCCC(C)C	inactive
Cc1ccccc1NC(=O)Cc1nc(COC(=O)CNS(=O)(=O)c2cccc(Br)c2)cs1	inactive

Compound	Potency
CCOC(=O)c1ccc(NC(=O)c2ccc(NC(=O)C3CCCO3)cc2)cc1 (stereo not given)	inconclusive: 16.4 µM [inhibitor, single point]
CC1(C)c2[nH]c3ccccc3c2C[C@H]2C(=O)N(CCCCCO)CC(=O)N21	inconclusive: 16.4 µM [inhibitor, single point]
CCOC(=O)CCNC(=O)Nc1cc2nc(C)n(Cc3cccc(Cl)c3)c2nc1C	inactive
Cc1ccc(-n2nnnc2-c2cccc(C)c2)cc1	inactive
COc1ccc(C2N(C(=O)N(C)C)CCN2S(=O)(=O)c2ccc(OC)cc2)cc1 (stereo not given)	inactive
CCSc1ncc(CO)c(N)n1	inconclusive: 11.6 µM [activator, partial curve, poor fit]
Cc1cc(=O)[nH]c(SCC(=O)Nc2ccc3c(c2)OCCO3)n1	inconclusive: 16.4 µM [inhibitor, partial curve]
COc1ccc(/C=C2/Sc3ccc(C(=O)NCCCN4CCOCC4)cc3NC2=O)cc1OC	inactive
COc1ccc(CCCC(=O)NCc2ccccc2)cc1C	inactive
CC1=Nc2nc(N3CCCCC3)c(C#N)c3c4c(nc(c23)N1)N(c1ccc(C(C)C)cc1)C(=O)C4	inactive
O=C(COc1ccc(Br)cc1Cl)NC(=S)Nc1ccccn1	inconclusive: 2.91 µM [activator, full curve]
CC1CCCC(NC(=O)CNC(=O)c2cccs2)C1C (stereo not given)	inconclusive: 0.259 µM [inhibitor, partial curve]
O=C(NCCC1=CCCCC1)C(=O)NCC(c1ccco1)N1CCN(c2ccc(F)cc2)CC1 (stereo not given)	inactive
Cc1ccc2c(c1)nnn2C1CCN(S(=O)(=O)c2ccc(C(=O)O)cc2)CC1	inactive
CC1CC(C)CN(C(=O)/C=C/c2ccc([N+](=O)[O-])s2)C1 (stereo not given)	inconclusive: 4.11 µM [activator, single point]
O=C(Oc1ccc(/C=N/NC(=O)c2ccccc2F)cc1)c1ccccc1	inconclusive: 29.1 µM [activator, single point]
CC(/C=C1\SC(=S)N(CCCC(=O)Nc2ccc(C(=O)O)c(O)c2)C1=O)=C\c1ccccc1	inconclusive: 18.4 µM [activator, single point]
COc1ccccc1CNC(=O)Cc1c[nH]c2ccccc12	inactive
N#CC1=C2C=Cc3ccccc3N2CCCC1=O	inconclusive: 4.61 µM [activator, partial curve]
O=C(NC1CCCC1)C(c1ccc(F)cc1)N(Cc1ccccc1Cl)C(=O)CCl (stereo not given)	inactive
O=C(NCc1ccccn1)c1ccc2nc(C3CCCCC3)oc2c1	inconclusive: 14.6 µM [activator, partial curve, poor fit]
COc1cc2nc(CN(C)CC(=O)Nc3ccc(N4CCOCC4)cc3)[nH]c(=O)c2cc1OC	inconclusive: 18.4 µM [inhibitor, partial curve]
